Publication PMC6737913

Sequences of proteins named here, by UniProt entry; tags and fusion partners are left off.
UniProt Q63357: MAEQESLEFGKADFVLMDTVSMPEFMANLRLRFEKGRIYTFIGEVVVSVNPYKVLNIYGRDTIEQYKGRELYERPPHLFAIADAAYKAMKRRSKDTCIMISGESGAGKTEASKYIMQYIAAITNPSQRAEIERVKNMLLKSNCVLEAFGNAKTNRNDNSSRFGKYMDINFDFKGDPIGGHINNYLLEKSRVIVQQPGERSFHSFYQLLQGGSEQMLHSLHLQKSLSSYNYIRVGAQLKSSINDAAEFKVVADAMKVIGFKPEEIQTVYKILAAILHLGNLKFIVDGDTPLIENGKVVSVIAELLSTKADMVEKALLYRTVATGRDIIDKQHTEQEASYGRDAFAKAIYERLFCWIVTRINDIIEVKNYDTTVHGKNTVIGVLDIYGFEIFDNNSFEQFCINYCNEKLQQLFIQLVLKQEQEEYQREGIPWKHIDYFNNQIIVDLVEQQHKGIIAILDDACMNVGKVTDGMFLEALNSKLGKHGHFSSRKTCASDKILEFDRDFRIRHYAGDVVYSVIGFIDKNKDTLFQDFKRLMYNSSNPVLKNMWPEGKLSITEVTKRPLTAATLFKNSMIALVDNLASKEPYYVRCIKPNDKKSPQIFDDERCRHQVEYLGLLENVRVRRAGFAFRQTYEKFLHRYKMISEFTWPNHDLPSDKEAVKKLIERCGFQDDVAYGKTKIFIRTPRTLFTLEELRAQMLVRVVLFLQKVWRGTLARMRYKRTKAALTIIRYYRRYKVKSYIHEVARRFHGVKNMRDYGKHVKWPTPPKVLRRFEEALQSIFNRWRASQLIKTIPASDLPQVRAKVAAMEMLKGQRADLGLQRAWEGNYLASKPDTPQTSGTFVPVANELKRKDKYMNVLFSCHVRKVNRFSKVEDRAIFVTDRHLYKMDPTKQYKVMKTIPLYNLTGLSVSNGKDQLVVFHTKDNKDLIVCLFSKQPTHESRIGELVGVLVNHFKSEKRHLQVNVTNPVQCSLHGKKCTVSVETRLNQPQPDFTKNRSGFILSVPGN
UniProt Q9QXQ0: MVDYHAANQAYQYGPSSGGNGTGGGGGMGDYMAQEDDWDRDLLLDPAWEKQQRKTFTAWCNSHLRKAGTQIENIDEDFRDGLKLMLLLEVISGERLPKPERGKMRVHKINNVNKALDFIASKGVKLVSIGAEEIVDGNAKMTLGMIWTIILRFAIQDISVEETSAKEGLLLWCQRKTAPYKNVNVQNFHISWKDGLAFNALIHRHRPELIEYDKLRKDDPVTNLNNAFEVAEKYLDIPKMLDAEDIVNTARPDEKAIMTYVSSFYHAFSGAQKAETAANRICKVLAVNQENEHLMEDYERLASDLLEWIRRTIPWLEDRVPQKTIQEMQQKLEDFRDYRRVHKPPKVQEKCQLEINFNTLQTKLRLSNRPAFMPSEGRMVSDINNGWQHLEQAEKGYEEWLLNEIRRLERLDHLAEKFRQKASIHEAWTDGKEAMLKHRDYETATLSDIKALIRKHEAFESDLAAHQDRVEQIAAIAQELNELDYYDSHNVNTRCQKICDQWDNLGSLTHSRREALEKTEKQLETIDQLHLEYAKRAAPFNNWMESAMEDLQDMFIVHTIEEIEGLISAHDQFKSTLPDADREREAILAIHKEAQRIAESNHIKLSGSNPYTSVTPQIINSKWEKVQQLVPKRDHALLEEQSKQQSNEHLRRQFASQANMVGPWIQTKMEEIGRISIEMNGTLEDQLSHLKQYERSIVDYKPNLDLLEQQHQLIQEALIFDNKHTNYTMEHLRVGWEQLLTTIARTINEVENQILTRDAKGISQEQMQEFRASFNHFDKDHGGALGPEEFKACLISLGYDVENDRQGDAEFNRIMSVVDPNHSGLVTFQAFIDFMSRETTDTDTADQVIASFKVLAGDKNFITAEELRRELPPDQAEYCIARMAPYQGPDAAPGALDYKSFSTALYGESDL
UniProt Q9QYF3: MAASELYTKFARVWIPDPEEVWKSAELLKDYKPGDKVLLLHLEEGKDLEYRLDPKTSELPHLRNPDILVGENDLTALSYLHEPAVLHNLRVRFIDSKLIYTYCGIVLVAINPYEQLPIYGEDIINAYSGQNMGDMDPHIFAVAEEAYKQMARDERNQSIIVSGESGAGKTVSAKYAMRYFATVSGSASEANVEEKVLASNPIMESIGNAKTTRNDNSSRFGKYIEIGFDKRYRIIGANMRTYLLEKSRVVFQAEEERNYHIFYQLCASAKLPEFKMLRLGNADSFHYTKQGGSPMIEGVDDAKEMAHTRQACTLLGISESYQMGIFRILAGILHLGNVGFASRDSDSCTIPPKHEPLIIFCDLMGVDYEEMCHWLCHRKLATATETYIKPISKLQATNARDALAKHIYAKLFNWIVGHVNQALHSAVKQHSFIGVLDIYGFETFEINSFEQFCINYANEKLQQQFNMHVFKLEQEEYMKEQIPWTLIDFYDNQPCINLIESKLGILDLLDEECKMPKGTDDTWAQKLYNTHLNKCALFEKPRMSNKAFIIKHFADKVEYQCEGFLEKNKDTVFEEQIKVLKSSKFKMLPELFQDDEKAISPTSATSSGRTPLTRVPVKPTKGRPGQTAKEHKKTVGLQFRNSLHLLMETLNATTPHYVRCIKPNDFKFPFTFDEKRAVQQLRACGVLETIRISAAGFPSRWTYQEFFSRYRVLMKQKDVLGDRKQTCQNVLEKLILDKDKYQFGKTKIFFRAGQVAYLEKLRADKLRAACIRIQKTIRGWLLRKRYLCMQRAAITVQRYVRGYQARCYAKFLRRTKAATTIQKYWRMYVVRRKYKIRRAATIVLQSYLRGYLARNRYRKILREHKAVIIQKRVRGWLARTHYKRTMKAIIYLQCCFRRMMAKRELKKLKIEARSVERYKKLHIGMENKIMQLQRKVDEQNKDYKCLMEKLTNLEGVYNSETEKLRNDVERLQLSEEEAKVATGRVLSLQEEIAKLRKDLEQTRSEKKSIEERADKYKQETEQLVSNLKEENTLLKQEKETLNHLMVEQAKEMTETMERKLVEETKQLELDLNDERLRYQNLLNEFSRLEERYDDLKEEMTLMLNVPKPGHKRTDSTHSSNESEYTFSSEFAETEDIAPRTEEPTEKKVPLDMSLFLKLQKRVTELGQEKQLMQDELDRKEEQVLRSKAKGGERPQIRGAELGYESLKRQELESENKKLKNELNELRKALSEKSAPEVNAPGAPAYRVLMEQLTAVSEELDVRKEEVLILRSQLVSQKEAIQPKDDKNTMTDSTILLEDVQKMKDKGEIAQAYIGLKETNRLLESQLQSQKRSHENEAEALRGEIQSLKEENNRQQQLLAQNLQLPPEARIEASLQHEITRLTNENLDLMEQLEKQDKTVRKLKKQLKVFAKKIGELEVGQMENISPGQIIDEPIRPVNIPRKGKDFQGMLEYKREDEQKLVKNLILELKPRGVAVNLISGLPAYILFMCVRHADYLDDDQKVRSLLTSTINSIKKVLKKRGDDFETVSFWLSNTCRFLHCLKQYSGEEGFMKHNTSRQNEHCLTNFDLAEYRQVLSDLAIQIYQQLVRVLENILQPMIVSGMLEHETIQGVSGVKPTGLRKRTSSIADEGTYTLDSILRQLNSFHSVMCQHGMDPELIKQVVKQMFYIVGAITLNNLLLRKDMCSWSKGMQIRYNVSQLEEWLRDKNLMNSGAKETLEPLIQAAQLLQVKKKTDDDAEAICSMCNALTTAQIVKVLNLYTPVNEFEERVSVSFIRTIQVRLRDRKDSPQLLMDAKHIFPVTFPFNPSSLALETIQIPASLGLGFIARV
UniProt P08413: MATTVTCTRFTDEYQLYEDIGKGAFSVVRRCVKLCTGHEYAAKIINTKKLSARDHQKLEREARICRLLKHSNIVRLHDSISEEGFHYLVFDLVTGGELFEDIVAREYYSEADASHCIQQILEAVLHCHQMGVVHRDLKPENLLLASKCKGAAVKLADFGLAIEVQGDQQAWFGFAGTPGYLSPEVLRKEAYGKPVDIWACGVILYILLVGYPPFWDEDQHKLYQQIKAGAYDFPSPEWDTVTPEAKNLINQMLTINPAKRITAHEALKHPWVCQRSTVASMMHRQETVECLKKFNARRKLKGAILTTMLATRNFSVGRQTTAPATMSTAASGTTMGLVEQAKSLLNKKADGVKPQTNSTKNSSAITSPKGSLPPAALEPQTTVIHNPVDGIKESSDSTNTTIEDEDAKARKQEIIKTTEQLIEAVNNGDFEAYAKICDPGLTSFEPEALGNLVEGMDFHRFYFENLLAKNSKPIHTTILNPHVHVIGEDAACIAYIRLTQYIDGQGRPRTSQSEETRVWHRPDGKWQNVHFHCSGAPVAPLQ
UniProt P70569: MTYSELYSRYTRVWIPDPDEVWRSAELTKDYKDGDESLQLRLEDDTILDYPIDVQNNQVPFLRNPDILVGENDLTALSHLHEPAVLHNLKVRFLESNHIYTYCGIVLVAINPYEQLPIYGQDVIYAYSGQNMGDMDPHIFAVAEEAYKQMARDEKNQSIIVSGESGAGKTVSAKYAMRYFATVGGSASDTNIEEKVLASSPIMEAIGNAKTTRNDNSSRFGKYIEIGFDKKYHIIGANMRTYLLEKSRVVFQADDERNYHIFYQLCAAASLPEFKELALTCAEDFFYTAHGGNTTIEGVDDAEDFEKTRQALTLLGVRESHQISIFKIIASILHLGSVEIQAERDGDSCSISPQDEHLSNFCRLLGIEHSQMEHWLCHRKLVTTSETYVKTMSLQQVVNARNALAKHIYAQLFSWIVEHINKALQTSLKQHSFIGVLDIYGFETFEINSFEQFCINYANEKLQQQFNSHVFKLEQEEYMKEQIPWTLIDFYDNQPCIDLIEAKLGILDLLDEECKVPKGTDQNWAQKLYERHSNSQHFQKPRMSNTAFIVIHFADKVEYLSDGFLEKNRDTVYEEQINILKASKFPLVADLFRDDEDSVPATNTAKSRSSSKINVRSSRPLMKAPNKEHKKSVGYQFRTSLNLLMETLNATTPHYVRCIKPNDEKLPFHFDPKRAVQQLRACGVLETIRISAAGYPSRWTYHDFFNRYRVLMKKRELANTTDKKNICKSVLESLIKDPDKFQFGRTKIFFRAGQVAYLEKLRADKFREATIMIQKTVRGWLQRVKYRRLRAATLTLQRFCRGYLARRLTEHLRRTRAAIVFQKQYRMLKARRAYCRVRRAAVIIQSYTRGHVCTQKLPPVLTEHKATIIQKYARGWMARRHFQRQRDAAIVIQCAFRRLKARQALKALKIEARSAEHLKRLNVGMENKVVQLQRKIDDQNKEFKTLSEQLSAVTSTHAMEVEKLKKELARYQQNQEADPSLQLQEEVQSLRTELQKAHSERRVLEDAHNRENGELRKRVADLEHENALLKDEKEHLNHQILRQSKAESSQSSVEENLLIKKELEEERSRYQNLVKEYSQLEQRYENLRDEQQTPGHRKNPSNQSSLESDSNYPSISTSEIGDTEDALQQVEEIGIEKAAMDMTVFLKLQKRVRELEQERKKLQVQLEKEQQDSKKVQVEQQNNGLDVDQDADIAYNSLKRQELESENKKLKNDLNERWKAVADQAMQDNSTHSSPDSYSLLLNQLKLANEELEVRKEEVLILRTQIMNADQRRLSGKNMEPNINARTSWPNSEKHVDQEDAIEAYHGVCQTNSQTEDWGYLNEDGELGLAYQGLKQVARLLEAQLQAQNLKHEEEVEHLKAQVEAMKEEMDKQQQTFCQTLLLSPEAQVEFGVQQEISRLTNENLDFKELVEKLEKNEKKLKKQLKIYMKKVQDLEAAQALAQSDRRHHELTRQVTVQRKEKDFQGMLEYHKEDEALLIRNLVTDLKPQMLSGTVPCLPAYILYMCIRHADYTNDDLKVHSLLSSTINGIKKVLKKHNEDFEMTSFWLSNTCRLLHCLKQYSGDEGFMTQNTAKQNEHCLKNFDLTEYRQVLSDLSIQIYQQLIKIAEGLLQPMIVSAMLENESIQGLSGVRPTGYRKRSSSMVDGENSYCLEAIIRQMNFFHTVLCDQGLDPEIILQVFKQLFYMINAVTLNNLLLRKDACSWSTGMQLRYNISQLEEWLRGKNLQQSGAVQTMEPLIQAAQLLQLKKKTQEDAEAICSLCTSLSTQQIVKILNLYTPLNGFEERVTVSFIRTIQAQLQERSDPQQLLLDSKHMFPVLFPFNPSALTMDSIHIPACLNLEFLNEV

T1: bio-GFP–synaptopodin (biotinylated GFP–synaptopodin) (mouse) (UniProt Q8CC35)
T1 sequence (chain, biotin (biotinylated; co-expressed with HA–BirA)): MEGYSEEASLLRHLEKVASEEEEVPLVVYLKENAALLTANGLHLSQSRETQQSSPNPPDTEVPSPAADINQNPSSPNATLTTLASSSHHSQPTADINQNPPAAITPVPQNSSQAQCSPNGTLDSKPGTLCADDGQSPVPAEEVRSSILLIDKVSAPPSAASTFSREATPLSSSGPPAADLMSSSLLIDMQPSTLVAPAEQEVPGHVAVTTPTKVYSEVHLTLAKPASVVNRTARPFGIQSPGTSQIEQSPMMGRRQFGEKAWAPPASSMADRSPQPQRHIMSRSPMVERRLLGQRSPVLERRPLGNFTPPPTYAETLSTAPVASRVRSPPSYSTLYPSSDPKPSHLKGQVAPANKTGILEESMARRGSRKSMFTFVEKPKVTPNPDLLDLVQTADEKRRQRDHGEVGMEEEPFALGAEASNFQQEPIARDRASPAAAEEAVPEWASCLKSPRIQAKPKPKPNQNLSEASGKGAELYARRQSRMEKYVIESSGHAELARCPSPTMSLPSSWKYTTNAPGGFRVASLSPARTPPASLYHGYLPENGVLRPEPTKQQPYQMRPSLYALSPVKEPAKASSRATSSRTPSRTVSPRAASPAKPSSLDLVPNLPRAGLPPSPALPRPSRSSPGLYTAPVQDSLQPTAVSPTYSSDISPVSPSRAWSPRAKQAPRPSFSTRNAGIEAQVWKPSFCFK

B1: coronin Coro2b (endogenous, rat brain) (protein, UniProt F1LMV9 1-480)
chain: MTVTKMSWRPQYRSSKFRNVYGKVANREHCFDGIPITKNVHDNHFCAVNARFLAIVTESAGGGSFLVIPLEQTGRIEPNYPKVCGHQGNVLDIKWNPFIDNIIASCSEDTSVRIWEIPEGGLKRNMTEALLELHGHSRRVGLVEWHPTTNNILFSAGYDYKVLIWNLDIGEPVKMIDCHTDVILCMSFNTDGSLLTTTCKDKKLRVIEPRSGRVLQEANCKNHRVNRVVFLGNMKRLLTTGVSRWNTRQIALWDQEDLSMPMIEEEIDGLSGLLFPFYDADTHMLYLAGKGDGNIRYYEISTEKPYLSYLMEFRSPAPQKGLGVMPKHGLDVSACEVFRFYKLVTLKGLIEPISMIVPRRSDSYQEDIYPMTPGTEPALTPDEWLGGVNRDPVLMSLKEGYKKSSKVVFKAPIREKKSVVVNGIDLLENVPPRTENELLRMFFRQQDEIRRLKEELAQKDIRLRQLQLELKNLRNNPKNC
B2: tropomodulin Tmod2 (endogenous, rat brain) (protein, UniProt P70566 1-351)
chain: MALPFQKGLEKYKNIDEDELLGKLSEEELKQLENVLDDLDPESATLPAGFRQKDQTQKAATGPFDREHLLMYLEKEALEQKDREDFVPFTGEKKGRVFIPKEKPVETRKEEKVTLDPELEEALASASDTELYDLAAVLGVHNLLNNPKFDEETTNGQGRKGPVRNVVKGEKAKPVFEEPPNPTNVEASLQQMKANDPSLQEVNLNNIKNIPIPTLKEFAKALETNTHVRKFSLAATRSNDPVALAFAEMLKVNKTLKSLNVESNFITGAGILALVEALRENDTLTEIKIDNQRQQLGTAVEMEIAQMLEENSRILKFGYQFTKQGPRTRVAAAITKNNDLVRKKRVEGDRR

Target: T1, bio-GFP–synaptopodin (biotinylated GFP–synaptopodin) (mouse)
Assay: affinity purification with mass spectrometry; bio-GFP–synaptopodin (or bio-GFP control) from HEK293T lysate held on Streptavidin Dynabeads, washed (100/500 mM KCl), incubated with 1 ml cleared rat brain lysate for 1 h at 4°C, washed five times (20 mM Tris-HCl pH 8, 150 mM KCl, 0.1% Triton X-100); SDS-PAGE, in-gel digestion, LC-MS/MS; only the target purified

binding, binds:
myosin Id (endogenous, rat brain) (from UniProt Q63357 1-1006)
coronin Coro2a (endogenous, rat brain)
actinin (Actn4) (endogenous, rat brain) (from UniProt Q9QXQ0 1-911)
actinin (Actn2) (endogenous, rat brain)
myosin Va (endogenous, rat brain) (from UniProt Q9QYF3 1-1828)
F-actin-capping protein Capza2 (endogenous, rat brain) (from UniProt Q3T1K5 1-286)
gelsolin (Gsn) (endogenous, rat brain) (from UniProt Q68FP1 26-780)
CamKIIβ (endogenous, rat brain) (from UniProt P08413 1-542) (enzyme)
myosin Vb (endogenous, rat brain) (from UniProt P70569 1-1846)
CamKIIα (endogenous, rat brain) (from UniProt P11275 1-478) (enzyme)
tropomodulin Tmod3 (endogenous, rat brain)

Target: T1, bio-GFP–synaptopodin (biotinylated GFP–synaptopodin) (mouse)
Assay: as above
Remark: another data set of the same source

binding, binds:
B1
B2

No constants are given. Whether binding was seen depends on the method and setting. In cells and extracts the contact can be indirect. These calls come from enrichment with a bait or labelling near it, and not all partners need be listed. Sequences can lack the tags named with a protein.
